According to PubChem BioAssay AID1259354 (Paczesny and Yang Labs, IUPUI and University of Michigan, 2018):
About 1,800 (2.3%) of roughly 78,000 compounds were called active. Inconclusive results, whose numbers are uncertain, are shown with a selection of clear calls. No stated cut-off is given here; in the data, active means inhibition above about 30%; inconclusive means mostly about 10% to 28%; inactive means weaker than that.

The chains behind the UniProt entries cited, without tags or fusion partners. Where a name states a change or a piece, a line headed by the entry shows the natural chain unless it says otherwise.
UniProt Q01638: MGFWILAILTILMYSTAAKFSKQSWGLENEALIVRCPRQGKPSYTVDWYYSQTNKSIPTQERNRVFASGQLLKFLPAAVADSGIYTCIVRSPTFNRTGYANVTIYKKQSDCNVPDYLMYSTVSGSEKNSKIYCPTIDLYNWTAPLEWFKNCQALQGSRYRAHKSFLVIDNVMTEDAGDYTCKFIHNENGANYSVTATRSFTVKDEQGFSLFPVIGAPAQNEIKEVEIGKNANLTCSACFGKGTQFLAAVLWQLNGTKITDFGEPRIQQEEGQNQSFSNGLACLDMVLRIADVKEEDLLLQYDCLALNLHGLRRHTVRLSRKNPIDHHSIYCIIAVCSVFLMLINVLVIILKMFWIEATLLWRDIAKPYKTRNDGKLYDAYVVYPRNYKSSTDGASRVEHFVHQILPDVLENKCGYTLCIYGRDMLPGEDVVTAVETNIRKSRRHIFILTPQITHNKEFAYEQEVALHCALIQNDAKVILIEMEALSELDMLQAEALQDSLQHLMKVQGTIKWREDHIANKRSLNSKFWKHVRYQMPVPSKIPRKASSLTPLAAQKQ

Target: Interleukin-1 receptor-like 1 (Homo sapiens) (UniProt Q01638)
Assay: blocks human ST2 binding to IL-33, primary screen, biochemical, AlphaLISA (AID 1259354)
Details: AlphaLISA ST2-Fc/biotin-IL-33 interaction, 1 h; at 17 µM, active compounds read high

Row | SMILES | inhibition
1 | COc1ccc(C2CC(c3cccc(OC)c3)Nc3ncnn32)cc1 (stereo not given) | inactive
2 | Cc1cc2c(o1)-c1c(oc3ccccc13)CCC2(C)c1ccccc1 (stereo not given) | inconclusive: 21%
3 | O=[N+]([O-])c1ccc(N2CCN(Cc3ccccc3)CC2)c(S(=O)(=O)N2CCCC2)c1 | inconclusive: 15%
4 | COc1cc(NC(=O)C2CCN(S(=O)(=O)c3cccc4cccnc34)CC2)cc(OC)c1 | inactive
5 | COc1cc(C2c3[nH]c4ccccc4c3CCN2Cc2cccc3nccnc23)ccc1F (stereo not given) | inconclusive: 27%
6 | O=C1C2=C(Nc3ccccc3SC2c2cccs2)c2ccccc21 (stereo not given) | inconclusive: 16%
7 | CO[C@H]1CN(C(=O)c2csc(CN(C)C)n2)CC[C@H]1N | inconclusive: 19%
8 | c1ccc(CC2c3nc[nH]c3CCN2Cc2ccc(-c3ccn[nH]3)o2)cc1 (stereo not given) | inconclusive: 22%
9 | COc1ccc(C=C2C(=O)OC3(CCCCC3)OC2=O)cc1O | inactive
10 | O=[N+]([O-])c1cccc(S(=O)(=O)Nc2cc(Cl)cc(Cl)c2)c1 | inconclusive: 13%
11 | COc1ccc(CN2CCN(Cc3cc(OC)c(OC)cc3OC)CC2)cc1 | inactive
12 | C(#CC1CC1)CN1CCOCC1 | inconclusive: 10%
13 | COc1ccc(-c2nnc(NC(=O)c3ccc(S(=O)(=O)N4CCCC4)cc3)o2)c(OC)c1 | inconclusive: 12%
14 | O=C(C1COc2ccccc2C1)N1CC(=O)N(C2CCCCC2)CC(OCc2ccccn2)C1 (stereo not given) | inconclusive: 15%
15 | O=c1cc2cc(O)[nH]c(=O)c2c(O)[nH]1 | active: 47%
16 | CCc1ccc(N2C(=O)Nc3ccc(Br)cc3C2(O)C(=O)NCCC(C)C)cc1 (stereo not given) | inconclusive: 13%
17 | Cc1ccc(S(=O)(=O)NCc2nc3cccnc3n2Cc2ccccc2)cc1C | inconclusive: 13%
18 | COc1ccc(CNC(=O)COc2cc(C)ccc2C)cc1 | inactive
19 | Cc1ccc(C)c(NCC(=O)Nc2c(C)cccc2C)c1 | inconclusive: 25%
20 | CCC1=C(c2ccc(OC)cc2)S(=O)(=O)N(CC(=O)Nc2ccc(OC)c(OC)c2)C1=O | inconclusive: 25%
21 | COC(=O)C(C)C1Sc2ccccc2N(Cc2cc(C)ccc2C)C1=O (stereo not given) | inactive
22 | Cc1nn(CCCC(=O)Nc2cc(C(F)(F)F)ccc2Cl)c(C)c1[N+](=O)[O-] | inactive
23 | CCOc1ccc(Br)cc1/C=C1/C(=O)NN(c2ccc(C)cc2)C1=O | inconclusive: 11%
24 | CSc1cccc(NC(=O)CSC2=NS(=O)(=O)c3ccccc32)c1 | inactive

Row | SMILES | inhibition
25 | CCC(C)NC(=O)c1cc2c(C)nc3ccccc3c2o1 (stereo not given) | inconclusive: 12%
26 | COc1ccccc1C(=O)N/C(=C/c1ccc2c(c1)OCO2)C(=O)Nc1cccc(C(=O)O)c1 | active: 39%
27 | Cc1ccc(-c2ncnn2-c2cccc(Cl)c2C)cc1 | inconclusive: 25%
28 | O=S(=O)(c1ccc(Cl)s1)N1CCN(c2ccc(F)cc2)CC1 | inactive
29 | CC(CNC(=O)c1cc(=O)c2ccccc2[nH]1)Oc1cccnc1 (stereo not given) | inconclusive: 17%
30 | Cc1c(C(=O)Nc2cc(Cl)c(Cl)cc2Cl)cccc1[N+](=O)[O-] | inconclusive: 10%
31 | O=C(c1ccccc1Cl)N1CCN(c2ccccc2)CC1 | inactive
32 | O=C(C[C@@H]1C(C(=O)OCCc2ccc(O)c(O)c2)=CO[C@@H](O[C@@H]2O[C@H](CO)[C@@H](O)[C@H](O)[C@H]2O)/C1=C\CO)OCCc1ccc(O)c(O)c1 | inconclusive: 12%
33 | COc1ccc(CN2CCN(C3CCCCC3)C(=O)C2)cc1C(=O)O | inactive
34 | Cc1[nH]nc2c1C(c1c(Cl)cccc1Cl)C(C#N)=C(N)O2 (stereo not given) | inconclusive: 16%
35 | COc1cccc(NC(=O)/C(C#N)=C\c2cn(Cc3cccc(C)c3)c3ccccc23)c1 | active: 33%
36 | CC(=O)NC(C)c1ccc(-c2cccc3cnccc23)cc1 (stereo not given) | inactive
37 | CCCN1CC(C(=O)N2CCCn3nc(C(=O)NC4CC4)cc3C2)CCC1=O (stereo not given) | inconclusive: 11%
38 | O=C(Nc1nc2ccccc2s1)c1ccc(N2C(=O)c3ccccc3C2=O)cc1 | inactive
39 | COc1cc(-c2nc(C=C3C(C)=Nc4ccccc43)c(O)o2)cc(OC)c1OC | active: 34%
40 | COc1ccc2c(=O)c(-c3ccccc3C)c(C(F)(F)F)oc2c1 | active: 75%
41 | Cn1c(=O)n(C)c2cc(CNC(=O)c3ccc4oc(Cc5ccccc5)nc4c3)ccc21 | inconclusive: 20%
42 | Cc1nsc(NC(=O)NC(C)c2cccs2)n1 (stereo not given) | inconclusive: 22%
43 | CN(C)CCNS(=O)(=O)c1cc(Br)cc2c1N(C(=O)C1CC1)CC2 | inactive
44 | CCOC(=O)c1cn(CC)c2cc(N(C)CCc3ccc(OC)c(OC)c3)c(F)cc2c1=O | inactive
45 | CC1=C[C@@H](CN2CCN(c3ncccn3)CC2)[C@H](C(C)C)C[C@H]1Cc1nnc(Cc2c[nH]c3ccccc23)o1 | inconclusive: 13%
46 | O=C(O)c1ccc2c(c1)C1C=CCC1C(C(=O)O)N2 (stereo not given) | active: 82%
47 | CCCN(Cc1nccn1C)C(=O)C12CNCC1CNC2 (stereo not given) | inconclusive: 24%
48 | CC1=CC[C@@H]2CN(C(=O)Cc3ccc(S(C)(=O)=O)cc3)C[C@@H]2C1 | inconclusive: 17%

Row | SMILES | inhibition
49 | CC1=CC[C@@H]2CN(C(=O)CCc3n[nH]c(C)n3)C[C@@H]2C1 | inactive
50 | Cn1cncc1-c1nnc([C@H]2CCN(Cc3ccco3)C2)o1 | inactive
51 | O=C(C1=CCCCC1)N1CCC2(CCCN(Cc3ccc(F)c(F)c3)C2)C1 (stereo not given) | inactive
52 | O=C(NCCN1CCOCC1)c1cc(=O)[nH]c2ccc(S(=O)(=O)N3CCCCCC3)cc12 | inactive
53 | O=C(NCc1ccccc1)NS(=O)(=O)c1ccccc1Cl | inactive
54 | CCOc1ccc(-c2cn(-c3ccc(C)cc3)c(=O)[nH]2)cc1 | inconclusive: 19%
55 | O=S(=O)(c1ccc(F)cc1)c1ccc(F)cc1 | inconclusive: 12%
56 | O=C(Nc1ccccc1Cl)c1cccc(F)c1 | inconclusive: 19%
57 | Cc1ccc(OCCCCN2CCOCC2)cc1 | inconclusive: 14%
58 | O=c1[nH]c(Nc2nc3ccccc3[nH]2)nc2ccccc12 | inactive
59 | CSc1nc2ccc(NC(=O)c3ccccc3F)cc2s1 | inactive
60 | CC(C)C1C(C#N)=C(N)Oc2n[nH]c(-c3ccc4ccccc4c3)c21 (stereo not given) | inconclusive: 12%
61 | C[C@@H](C(=O)N1C[C@H]2C[C@H](O)[C@H](O)C[C@H]2C1)c1ccccc1 | inconclusive: 18%
62 | COc1ccc(C2C(C#N)=C(N)SC(N)=C2C#N)c(OC)c1 | inactive
63 | Cc1ccc(S(=O)(=O)N(CC(O)CN2CCCC2)c2cccc([N+](=O)[O-])c2)cc1 (stereo not given) | inconclusive: 27%
64 | COc1cc(-c2cc(NC(C)C)ncn2)cc(OC)c1OC | inactive
65 | O=C(Nc1nc2ccccc2s1)C1c2ccccc2C(=O)N2CCc3ccccc3C12 (stereo not given) | inactive
66 | CCOC(=O)C1(CC2CC2)CCNCC1 | inactive
67 | Cc1ccc2oc(-c3ccc(NC(=O)c4ccc5c(c4)OCCO5)cc3O)nc2c1 | active: 32%
68 | Cc1cccc(C(=O)Nc2ccc(C)c(OCc3cc(=O)n4cccc(C)c4n3)c2)c1 | active: 33%
69 | O=[N+]([O-])c1ccc(S(=O)(=O)NCc2nc3cccnc3n2Cc2ccc(F)cc2)cc1 | inactive
70 | O=C(O)CCN1C(=O)c2ccc(C(=O)c3ccc(C(=O)O)cc3)cc2C1=O | inconclusive: 11%
71 | O=C(Nc1cccc(Cl)c1)c1cc([N+](=O)[O-])ccc1NCCO | inconclusive: 24%
72 | CCc1ccc(OCC(=O)O)cc1 | inconclusive: 10%

Row | SMILES | inhibition
73 | O=S(=O)(c1ccc(Oc2ccccc2)cc1)N1CCc2ccccc2C1 | inactive
74 | COc1ccc(CCNc2ncnc3c2cnn3-c2cccc(C)c2)cc1OC | inconclusive: 13%
75 | COCCNC(=S)N[C@H]1C[C@H]2C(=O)NC[C@@H](CCC(=O)NCc3cccnc3)N2C1 | inconclusive: 11%
76 | COC(=O)C1=C(NC(=O)c2ccccc2F)CCS1 | active: 39%
77 | Cc1cccn2c(=O)c3cc(C(=O)NCc4ccccc4)c(=N)n(CCCn4ccnc4)c3nc12 | inconclusive: 25%
78 | C=CCSC1=C(C#N)C(c2cccc(Cl)c2Cl)CC(=O)N1 (stereo not given) | inconclusive: 12%
79 | CCc1cc2c(=O)oc(-c3ccccc3C)nc2s1 | active: 33%
80 | O[C@@H]1C[C@H]2CN(c3nc(-c4ccccc4)nc4c3CCC4)C[C@H]2C[C@@H]1O | inconclusive: 20%
81 | Cc1ccc(OCC(O)CN2CCN(Cc3ccc4c(c3)OCO4)CC2)c(C)c1 (stereo not given) | inconclusive: 10%
82 | Cc1cc(N(C)C)nc(Nc2ccc(NC(=O)c3ccccc3Cl)cc2)n1 | inactive
83 | CC1NC2=C(C(=O)CC(c3ccccc3)C2)C(c2ccc(Br)cc2)C1C#N (stereo not given) | inconclusive: 15%
84 | COc1ccc(OC)c(CN2CCCN(C)CC2)c1 | inactive
85 | COc1cc2c(C(=O)NCCCN3CCOCC3)cn(CC(C)C)c(=O)c2cc1OC | inactive
86 | CCc1ccc(C2N(c3cc(Cl)ccc3OC)C(=O)C3CCCN32)cc1 (stereo not given) | inconclusive: 10%
87 | CCOc1ccc(CNC(=O)c2ccccc2NC(=O)c2nsc3ccccc23)cc1OC | inconclusive: 13%
88 | Cc1ccc(CN2C(=O)C3(OCCCO3)c3ccccc32)cc1 | inconclusive: 14%
89 | COC(=O)c1cc(N2C(=O)[C@@H]3C4C=CC(C4=C(C)C)[C@@H]3C2=O)ccc1Cl | inconclusive: 12%
90 | O=C(c1ccco1)N1CCN=C1SCc1ccc(Cl)cc1 | inactive
91 | CCc1oc(C(=O)N(C)Cc2snnc2C)cc1CN1CCCC1 | inconclusive: 19%
92 | COc1ccccc1-c1cc(C(F)(F)F)nc(S(C)(=O)=O)n1 | inactive
93 | C=Cn1cc(CN2CCN3CCNC(=O)C3C2)cn1 (stereo not given) | inconclusive: 19%
94 | CNc1nc2c(c(=O)n(C)c(=O)n2C)n1CCSc1nc2ccccc2s1 | inactive
95 | CCC(=O)N1c2ccccc2NC2=C(C(=O)CC(C)(C)C2)C1c1ccccn1 (stereo not given) | inconclusive: 17%

5 compounds drawn at random from the list so far, as already listed:
Row | SMILES | inhibition
89 | COC(=O)c1cc(N2C(=O)[C@@H]3C4C=CC(C4=C(C)C)[C@@H]3C2=O)ccc1Cl | inconclusive: 12%
80 | O[C@@H]1C[C@H]2CN(c3nc(-c4ccccc4)nc4c3CCC4)C[C@H]2C[C@@H]1O | inconclusive: 20%
84 | COc1ccc(OC)c(CN2CCCN(C)CC2)c1 | inactive
93 | C=Cn1cc(CN2CCN3CCNC(=O)C3C2)cn1 (stereo not given) | inconclusive: 19%
76 | COC(=O)C1=C(NC(=O)c2ccccc2F)CCS1 | active: 39%

3 of these compounds in a different format:
Row	SMILES	inhibition
87	CCOc1ccc(CNC(=O)c2ccccc2NC(=O)c2nsc3ccccc23)cc1OC	inconclusive: 13%
88	Cc1ccc(CN2C(=O)C3(OCCCO3)c3ccccc32)cc1	inconclusive: 14%
89	COC(=O)c1cc(N2C(=O)[C@@H]3C4C=CC(C4=C(C)C)[C@@H]3C2=O)ccc1Cl	inconclusive: 12%
